Results: publication PMC9427758
Results are given in words; binding and its absence hold for the method and conditions named. Binding seen in cells or lysates may run through a third protein. Some results given as binding are weak or reduced against the parent protein; the word gives no strength.

Chains of the proteins cited; added tags and fusions are not shown. Residues count along the entry.
UniProt Q8BNA6, residues 32-4555: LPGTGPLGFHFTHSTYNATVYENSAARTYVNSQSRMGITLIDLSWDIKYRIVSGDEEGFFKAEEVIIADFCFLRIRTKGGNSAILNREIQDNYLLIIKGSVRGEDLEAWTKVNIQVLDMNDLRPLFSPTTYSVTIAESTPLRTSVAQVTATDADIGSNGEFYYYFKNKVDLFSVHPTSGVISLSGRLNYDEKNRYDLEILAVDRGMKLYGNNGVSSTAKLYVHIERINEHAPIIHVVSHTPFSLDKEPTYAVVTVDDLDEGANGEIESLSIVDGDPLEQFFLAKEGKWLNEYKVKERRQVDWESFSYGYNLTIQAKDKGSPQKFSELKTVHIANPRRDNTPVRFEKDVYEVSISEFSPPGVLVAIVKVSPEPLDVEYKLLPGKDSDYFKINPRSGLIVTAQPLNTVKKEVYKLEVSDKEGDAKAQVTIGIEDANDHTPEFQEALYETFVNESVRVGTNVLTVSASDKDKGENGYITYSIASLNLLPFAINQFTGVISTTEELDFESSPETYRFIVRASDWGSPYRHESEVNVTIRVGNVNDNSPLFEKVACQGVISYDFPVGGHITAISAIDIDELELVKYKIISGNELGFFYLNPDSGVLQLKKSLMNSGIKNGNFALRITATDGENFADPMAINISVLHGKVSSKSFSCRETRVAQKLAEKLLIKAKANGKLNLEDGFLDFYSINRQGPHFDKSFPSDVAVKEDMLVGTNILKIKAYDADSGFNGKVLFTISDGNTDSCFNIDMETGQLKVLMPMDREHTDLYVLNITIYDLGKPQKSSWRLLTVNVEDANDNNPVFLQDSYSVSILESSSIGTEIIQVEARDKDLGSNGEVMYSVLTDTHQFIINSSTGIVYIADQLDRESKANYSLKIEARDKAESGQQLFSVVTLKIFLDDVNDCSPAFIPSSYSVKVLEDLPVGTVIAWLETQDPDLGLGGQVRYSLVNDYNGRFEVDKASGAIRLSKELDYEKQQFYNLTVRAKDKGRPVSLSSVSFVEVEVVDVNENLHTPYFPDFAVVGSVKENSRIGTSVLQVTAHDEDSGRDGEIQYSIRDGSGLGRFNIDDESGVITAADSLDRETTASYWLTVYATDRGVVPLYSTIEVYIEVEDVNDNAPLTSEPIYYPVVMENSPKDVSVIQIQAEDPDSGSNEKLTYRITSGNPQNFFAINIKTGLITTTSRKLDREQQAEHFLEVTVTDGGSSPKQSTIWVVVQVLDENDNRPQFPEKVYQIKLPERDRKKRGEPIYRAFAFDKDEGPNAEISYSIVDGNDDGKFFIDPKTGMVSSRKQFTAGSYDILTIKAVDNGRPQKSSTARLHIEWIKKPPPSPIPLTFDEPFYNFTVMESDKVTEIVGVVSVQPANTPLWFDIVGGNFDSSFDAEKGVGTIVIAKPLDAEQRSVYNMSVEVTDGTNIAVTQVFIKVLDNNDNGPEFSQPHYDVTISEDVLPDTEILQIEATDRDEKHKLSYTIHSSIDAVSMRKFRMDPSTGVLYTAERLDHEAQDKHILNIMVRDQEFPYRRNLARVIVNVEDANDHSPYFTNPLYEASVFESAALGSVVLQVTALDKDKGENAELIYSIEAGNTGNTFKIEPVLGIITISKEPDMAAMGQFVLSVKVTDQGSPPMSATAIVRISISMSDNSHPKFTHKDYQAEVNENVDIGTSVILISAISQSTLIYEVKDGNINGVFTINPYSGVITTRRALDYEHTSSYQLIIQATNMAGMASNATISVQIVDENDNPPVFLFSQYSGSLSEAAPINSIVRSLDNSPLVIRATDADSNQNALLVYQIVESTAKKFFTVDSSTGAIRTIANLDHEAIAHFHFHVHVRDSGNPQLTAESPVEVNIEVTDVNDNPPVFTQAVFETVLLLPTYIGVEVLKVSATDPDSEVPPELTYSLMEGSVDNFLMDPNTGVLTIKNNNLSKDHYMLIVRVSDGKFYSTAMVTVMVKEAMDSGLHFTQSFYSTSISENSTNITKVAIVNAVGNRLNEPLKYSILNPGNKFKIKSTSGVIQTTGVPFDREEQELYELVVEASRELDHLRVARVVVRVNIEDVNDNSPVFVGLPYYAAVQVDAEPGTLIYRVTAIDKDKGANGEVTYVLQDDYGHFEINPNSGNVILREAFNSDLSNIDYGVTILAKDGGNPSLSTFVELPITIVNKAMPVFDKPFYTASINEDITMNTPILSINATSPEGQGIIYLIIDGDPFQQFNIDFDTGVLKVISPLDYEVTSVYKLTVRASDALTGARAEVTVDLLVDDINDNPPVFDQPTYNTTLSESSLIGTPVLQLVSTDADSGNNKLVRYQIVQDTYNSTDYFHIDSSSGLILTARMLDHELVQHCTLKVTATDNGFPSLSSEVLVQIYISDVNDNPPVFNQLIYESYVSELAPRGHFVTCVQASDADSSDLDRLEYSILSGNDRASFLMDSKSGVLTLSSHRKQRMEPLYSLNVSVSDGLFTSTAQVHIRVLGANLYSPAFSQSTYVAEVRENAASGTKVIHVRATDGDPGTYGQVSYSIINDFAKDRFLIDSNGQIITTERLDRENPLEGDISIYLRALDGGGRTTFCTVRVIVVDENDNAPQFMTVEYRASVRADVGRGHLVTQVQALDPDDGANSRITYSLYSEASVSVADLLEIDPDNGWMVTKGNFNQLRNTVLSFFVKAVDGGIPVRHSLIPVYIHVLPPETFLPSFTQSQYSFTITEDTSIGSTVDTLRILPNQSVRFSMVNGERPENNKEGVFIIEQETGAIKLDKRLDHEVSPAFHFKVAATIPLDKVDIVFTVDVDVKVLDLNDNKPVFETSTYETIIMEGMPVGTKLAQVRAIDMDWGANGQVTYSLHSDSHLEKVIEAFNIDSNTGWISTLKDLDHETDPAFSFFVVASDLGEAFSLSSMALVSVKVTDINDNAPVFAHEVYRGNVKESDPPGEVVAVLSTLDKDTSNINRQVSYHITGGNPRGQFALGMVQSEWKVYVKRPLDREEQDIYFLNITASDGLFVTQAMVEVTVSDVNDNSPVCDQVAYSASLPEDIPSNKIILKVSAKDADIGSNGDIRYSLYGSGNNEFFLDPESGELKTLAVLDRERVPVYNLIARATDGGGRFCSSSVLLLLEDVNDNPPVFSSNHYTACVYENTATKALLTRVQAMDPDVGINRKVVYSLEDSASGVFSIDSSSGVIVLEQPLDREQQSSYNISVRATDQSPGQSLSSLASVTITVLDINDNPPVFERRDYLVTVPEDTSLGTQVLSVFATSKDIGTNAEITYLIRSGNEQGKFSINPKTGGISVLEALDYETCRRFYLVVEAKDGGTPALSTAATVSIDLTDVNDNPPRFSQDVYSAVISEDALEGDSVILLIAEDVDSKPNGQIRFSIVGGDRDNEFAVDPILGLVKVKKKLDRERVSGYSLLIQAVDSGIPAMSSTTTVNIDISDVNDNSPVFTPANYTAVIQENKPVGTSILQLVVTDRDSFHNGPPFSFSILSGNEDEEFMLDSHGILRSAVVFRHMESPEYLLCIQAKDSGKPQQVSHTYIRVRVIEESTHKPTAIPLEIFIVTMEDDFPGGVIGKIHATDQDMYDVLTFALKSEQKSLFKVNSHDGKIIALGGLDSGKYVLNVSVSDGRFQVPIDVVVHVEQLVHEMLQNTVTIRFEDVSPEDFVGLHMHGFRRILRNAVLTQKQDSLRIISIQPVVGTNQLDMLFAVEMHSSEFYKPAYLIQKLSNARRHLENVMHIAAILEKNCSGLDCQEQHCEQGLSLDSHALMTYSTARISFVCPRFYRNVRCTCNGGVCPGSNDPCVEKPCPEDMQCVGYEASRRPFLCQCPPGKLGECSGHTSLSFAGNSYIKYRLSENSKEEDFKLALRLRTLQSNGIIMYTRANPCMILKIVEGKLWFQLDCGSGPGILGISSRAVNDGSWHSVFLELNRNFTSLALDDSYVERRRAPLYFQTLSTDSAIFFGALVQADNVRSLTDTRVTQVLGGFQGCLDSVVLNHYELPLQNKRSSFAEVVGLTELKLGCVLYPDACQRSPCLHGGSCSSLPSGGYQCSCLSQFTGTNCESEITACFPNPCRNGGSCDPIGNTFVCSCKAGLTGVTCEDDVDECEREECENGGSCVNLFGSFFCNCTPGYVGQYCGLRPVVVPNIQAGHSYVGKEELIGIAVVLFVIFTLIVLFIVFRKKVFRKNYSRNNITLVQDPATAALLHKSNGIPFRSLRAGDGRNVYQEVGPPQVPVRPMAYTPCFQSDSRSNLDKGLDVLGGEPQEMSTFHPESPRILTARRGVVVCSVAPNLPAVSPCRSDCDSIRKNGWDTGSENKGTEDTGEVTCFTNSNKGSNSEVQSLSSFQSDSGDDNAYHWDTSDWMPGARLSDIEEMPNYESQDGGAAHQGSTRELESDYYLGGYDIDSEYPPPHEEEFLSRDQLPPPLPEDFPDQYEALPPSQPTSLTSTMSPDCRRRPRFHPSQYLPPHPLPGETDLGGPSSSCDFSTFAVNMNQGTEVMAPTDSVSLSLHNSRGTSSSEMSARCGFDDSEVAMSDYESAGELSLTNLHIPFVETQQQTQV

Molecular target: Fat3 (atypical cadherin), endogenous (mouse (endogenous in E11.5 spinal cord)) (UniProt Q8BNA6)
Experiment: co-IP; E11.5 mouse spinal cord extract (20 spinal cords pooled for each immunoprecipitation); IP buffer (20 mM Tris-HCl pH 8.0, 0.5% NP-40, 1 mM EDTA, 150 mM NaCl, 10% glycerol); precipitated with rabbit anti-Fat3, blotted with anti-Lats1

B1: Lats1, endogenous (enzyme, UniProt Q8BYR2 1-1129)
chain: MKRGEKPEGYRQMRPKTFPASNYPGSSRQMLQEIRESLRNLSKPSDASKAEHNLNKMSTEDPRQVRNPPKFGTHHKALQEIRNSLLPFANETSSSRSPSEVNPQMFQDLQAAGFDEDMVIQALQKTNNRSIEAAVEFISKMSYQDPRREQMSAAAARPINATMKPGNVQHSINRKQSWKGSKESLVPQRHGPSLGENVVYRSESPNSQADVGRPLSGSGIAAFAQAHPSNGQRVNPPPPPQVRSVTPPPPPRGQTPPPRGTTPPPPSWEPSSQTKRYSGNMEYVISRISPVPPGAWQEGYPPPPLTTSPMNPPSQAQRAISSVPVGRQPIIMQSTSKFNFTPGRPGVQNGGGQSDFIVHQNVPTGSVTRQPPPPYPLTPANGQSPSALQTGASAAPPSFANGNVPQSMMVPNRNSHNMELYNINVPGLQTAWPQSSSAPAQSSPSGGHEIPTWQPNIPVRSNSFNNPLGSRASHSANSQPSATTVTAITPAPIQQPVKSMRVLKPELQTALAPTHPSWMPQPVQTVQPTPFSEGTASSVPVIPPVAEAPSYQGPPPPYPKHLLHQNPSVPPYESVSKPCKDEQPSLPKEDDSEKSADSGDSGDKEKKQITTSPITVRKNKKDEERRESRIQSYSPQAFKFFMEQHVENVLKSHQQRLHRKKQLENEMMRVGLSQDAQDQMRKMLCQKESNYIRLKRAKMDKSMFVKIKTLGIGAFGEVCLARKVDTKALYATKTLRKKDVLLRNQVAHVKAERDILAEADNEWVVRLYYSFQDKDNLYFVMDYIPGGDMMSLLIRMGIFPENLARFYIAELTCAVESVHKMGFIHRDIKPDNILIDRDGHIKLTDFGLCTGFRWTHDSKYYQSGDHPRQDSMDFSNEWGDPSNCRCGDRLKPLERRAARQHQRCLAHSLVGTPNYIAPEVLLRTGYTQLCDWWSVGVILFEMLVGQPPFLAQTPLETQMKVINWQTSLHIPPQAKLSPEASDLIIKLCRGPEDRLGKNGADEIKAHPFFKTIDFSSDLRQQSASYIPKITHPTDTSNFDPVDPDKLWSDGSEEENISDTLNGWYKNGKHPEHAFYEFTFRRFFDDNGYPYNYPKPIEYEYIHSQGSEQQSDEDDQHTSSDGNNRDLVYV
Q: Which binding does the source give for B1 here?
A: Its binding is “binds”.
